No constants are given. Whether binding was seen depends on the method and setting. In cells and extracts the contact can be indirect. Some entries that bind do so weakly or less than the wild type.
Target: APC (human (endogenous in SW116)) (UniProt P25054)
Assay: co-IP; total lysate of SW116 cells (50 mM Tris-HCl pH 7.5, 150 mM NaCl, 1 mM EDTA, 0.3% Triton X-100, PMSF); 1 ug anti-APC or anti-KRT17 antibody overnight at 4°C, protein A agarose beads, eight washes, Western blotting

Amino acid sequences for entries named in this document (tags omitted).
UniProt P25054: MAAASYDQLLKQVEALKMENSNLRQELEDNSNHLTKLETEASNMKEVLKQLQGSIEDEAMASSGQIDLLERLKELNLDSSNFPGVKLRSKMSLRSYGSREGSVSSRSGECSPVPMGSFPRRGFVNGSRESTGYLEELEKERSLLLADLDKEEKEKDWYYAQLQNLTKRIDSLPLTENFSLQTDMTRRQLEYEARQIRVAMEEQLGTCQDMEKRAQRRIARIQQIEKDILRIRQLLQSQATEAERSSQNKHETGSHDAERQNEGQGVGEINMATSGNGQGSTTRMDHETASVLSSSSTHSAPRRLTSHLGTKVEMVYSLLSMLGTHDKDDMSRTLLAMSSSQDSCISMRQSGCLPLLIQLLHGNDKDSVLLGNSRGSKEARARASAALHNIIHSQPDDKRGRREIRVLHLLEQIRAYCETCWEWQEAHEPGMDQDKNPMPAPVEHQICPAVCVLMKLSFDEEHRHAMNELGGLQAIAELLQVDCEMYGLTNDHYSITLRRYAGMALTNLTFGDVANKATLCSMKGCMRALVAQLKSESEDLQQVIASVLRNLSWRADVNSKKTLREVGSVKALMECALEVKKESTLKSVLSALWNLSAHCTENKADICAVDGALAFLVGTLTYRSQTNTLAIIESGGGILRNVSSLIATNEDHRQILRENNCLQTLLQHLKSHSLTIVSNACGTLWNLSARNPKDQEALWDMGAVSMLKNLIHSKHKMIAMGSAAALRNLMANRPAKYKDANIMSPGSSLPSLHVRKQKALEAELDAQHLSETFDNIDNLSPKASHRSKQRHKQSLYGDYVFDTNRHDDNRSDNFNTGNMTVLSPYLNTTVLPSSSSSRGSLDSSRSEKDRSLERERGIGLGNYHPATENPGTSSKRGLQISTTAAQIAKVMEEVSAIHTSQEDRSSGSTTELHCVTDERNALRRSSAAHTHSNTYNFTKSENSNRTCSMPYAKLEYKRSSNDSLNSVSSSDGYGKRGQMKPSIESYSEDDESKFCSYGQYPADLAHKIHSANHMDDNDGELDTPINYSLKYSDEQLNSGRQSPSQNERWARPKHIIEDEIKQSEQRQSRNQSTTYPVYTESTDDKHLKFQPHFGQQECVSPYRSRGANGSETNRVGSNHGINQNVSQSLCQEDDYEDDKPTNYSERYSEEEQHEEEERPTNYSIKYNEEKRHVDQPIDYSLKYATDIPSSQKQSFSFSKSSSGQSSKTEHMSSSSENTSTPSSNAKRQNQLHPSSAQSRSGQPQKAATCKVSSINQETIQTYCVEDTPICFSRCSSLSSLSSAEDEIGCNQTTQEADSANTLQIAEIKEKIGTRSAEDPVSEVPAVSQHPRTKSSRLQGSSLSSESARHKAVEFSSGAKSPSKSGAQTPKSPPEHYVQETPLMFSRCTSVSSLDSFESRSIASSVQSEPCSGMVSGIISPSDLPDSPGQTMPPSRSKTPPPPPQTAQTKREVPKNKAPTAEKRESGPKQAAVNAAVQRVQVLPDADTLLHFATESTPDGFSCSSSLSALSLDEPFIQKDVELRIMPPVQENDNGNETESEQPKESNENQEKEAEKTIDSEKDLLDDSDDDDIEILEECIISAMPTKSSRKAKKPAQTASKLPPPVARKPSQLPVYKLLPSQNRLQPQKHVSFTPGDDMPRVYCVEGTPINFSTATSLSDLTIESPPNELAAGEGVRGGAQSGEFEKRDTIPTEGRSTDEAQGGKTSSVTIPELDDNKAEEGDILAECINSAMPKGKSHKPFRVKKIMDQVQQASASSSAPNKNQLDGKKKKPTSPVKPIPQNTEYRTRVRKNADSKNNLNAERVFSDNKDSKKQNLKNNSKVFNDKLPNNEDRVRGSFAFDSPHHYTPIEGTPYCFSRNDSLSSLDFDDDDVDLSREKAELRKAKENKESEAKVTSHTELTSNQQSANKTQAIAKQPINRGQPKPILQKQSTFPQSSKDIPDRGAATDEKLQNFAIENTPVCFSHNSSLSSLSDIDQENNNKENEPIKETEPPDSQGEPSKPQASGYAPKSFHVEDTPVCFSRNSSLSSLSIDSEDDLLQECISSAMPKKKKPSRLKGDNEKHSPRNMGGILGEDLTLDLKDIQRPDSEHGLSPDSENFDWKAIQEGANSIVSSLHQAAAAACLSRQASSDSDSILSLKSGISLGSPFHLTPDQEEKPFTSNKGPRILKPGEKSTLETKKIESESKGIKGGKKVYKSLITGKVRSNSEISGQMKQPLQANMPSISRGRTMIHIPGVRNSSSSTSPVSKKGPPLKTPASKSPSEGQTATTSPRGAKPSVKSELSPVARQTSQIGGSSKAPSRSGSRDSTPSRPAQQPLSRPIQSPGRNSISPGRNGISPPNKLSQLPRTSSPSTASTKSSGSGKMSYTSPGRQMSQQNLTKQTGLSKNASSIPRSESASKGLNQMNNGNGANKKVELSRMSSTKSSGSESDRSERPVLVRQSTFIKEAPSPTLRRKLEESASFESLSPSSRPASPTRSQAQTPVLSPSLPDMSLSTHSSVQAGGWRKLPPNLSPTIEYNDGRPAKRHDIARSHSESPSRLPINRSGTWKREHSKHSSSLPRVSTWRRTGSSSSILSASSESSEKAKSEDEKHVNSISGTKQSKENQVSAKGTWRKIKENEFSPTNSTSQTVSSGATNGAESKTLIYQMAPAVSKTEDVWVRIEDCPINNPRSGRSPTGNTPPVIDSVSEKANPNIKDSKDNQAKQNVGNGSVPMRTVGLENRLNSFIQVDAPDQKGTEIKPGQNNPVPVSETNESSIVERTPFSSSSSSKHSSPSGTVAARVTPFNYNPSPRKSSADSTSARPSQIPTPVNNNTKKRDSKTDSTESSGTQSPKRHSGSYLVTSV
UniProt Q04695: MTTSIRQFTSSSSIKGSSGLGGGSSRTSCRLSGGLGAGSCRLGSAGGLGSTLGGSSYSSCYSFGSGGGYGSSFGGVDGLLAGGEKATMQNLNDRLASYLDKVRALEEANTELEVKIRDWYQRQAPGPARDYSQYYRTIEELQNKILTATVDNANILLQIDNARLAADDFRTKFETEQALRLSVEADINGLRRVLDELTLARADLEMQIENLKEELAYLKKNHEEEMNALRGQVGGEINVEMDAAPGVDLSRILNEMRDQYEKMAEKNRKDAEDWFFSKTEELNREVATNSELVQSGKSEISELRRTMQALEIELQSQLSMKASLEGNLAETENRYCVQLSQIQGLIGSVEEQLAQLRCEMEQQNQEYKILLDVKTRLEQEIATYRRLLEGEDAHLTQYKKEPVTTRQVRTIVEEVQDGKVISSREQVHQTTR

binding: binds
Substance: Keratin 17 (from UniProt Q04695 1-432)
